Data reported in the supplement of paper PMC4604168 (melanoma cell lines).
This is one part of the list. Single values are uncertain, as repeats are few or missing.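 Cells were imaged in 1,536-well plates, and nuclei stained with an antibody against cleaved PARP were counted against all DNA-stained nuclei to give the apoptosis fraction. Screening doses were chosen to leave most cells alive, and resting and induced cleaved-PARP levels differ strongly between cell lines.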

Tested on: MZ2-MEL
Experiment: cleaved PARP positive nuclei fraction relative to DMSO control; melanoma cells; higher = more apoptosis
Conditions: library dose: low library concentration; 72 h

First: CO[C@H]1C[C@@H]2CC[C@@H](C)[C@@](O)(O2)C(=O)C(=O)N2CCCC[C@H]2C(=O)O[C@H]([C@H](C)C[C@@H]2CC[C@@H](OCCO)[C@H](OC)C2)CC(=O)[C@H](C)/C=C(\C)[C@@H](O)[C@@H](OC)C(=O)[C@H](C)C[C@H](C)/C=C/C=C/C=C/1C [everolimus] + c1cc(-c2cnn3cc(-c4ccc(OCCN5CCCCC5)cc4)cnc23)ccn1 [Dorsomorphin] (first compound 0.02 µM, partner dose 0.4 µM)
Second: C[C@@H](Oc1cc(-c2cnn(C3CCNCC3)c2)cnc1N)c1c(Cl)ccc(F)c1Cl [Crizotinib] + CNC(=O)c1cc(Oc2ccc(NC(=O)Nc3ccc(Cl)c(C(F)(F)F)c3)cc2)ccn1 [sorafenib] (first compound 0.2 µM, partner dose 0.4 µM)
The “cleaved PARP positive nuclei fraction” value of the first is higher: 151% for the first, 35.7% for the second.

Going from `Cn1c(=O)n(-c2ccc(C(C)(C)C#N)cc2)c2c3cc(-c4cnc5ccccc5c4)ccc3ncc21` + CO[C@H]1C[C@@H]2CC[C@@H](C)[C@@](O)(O2)C(=O)C(=O)N2CCCC[C@H]2C(=O)O[C@H]([C@H](C)C[C@@H]2CC[C@@H](OCCO)[C@H](OC)C2)CC(=O)[C@H](C)/C=C(\C)[C@@H](O)[C@@H](OC)C(=O)[C@H](C)C[C@H](C)/C=C/C=C/C=C/1C [everolimus] (first compound 0.004 µM, partner dose 0.02 µM) to `CO[C@H]1C[C@@H]2CC[C@@H](C)[C@@](O)(O2)C(=O)C(=O)N2CCCC[C@H]2C(=O)O[C@H]([C@H](C)C[C@@H]2CC[C@@H](OCCO)[C@H](OC)C2)CC(=O)[C@H](C)/C=C(\C)[C@@H](O)[C@@H](OC)C(=O)[C@H](C)C[C@H](C)/C=C/C=C/C=C/1C` [everolimus] + O=C(Nc1cccc(Cl)c1)Nc1ncc(CCNc2ncnc3ccsc23)s1 [SNS314] (first compound 0.02 µM, partner dose 0.0008 µM), the “cleaved PARP positive nuclei fraction” value falls from 123% to 75.3%.
